Laboratory results reported in paper PMC8950122.
No constants are given. Whether binding was seen depends on the method and setting. Binding seen in cells or lysates may run through a third protein. For some of these results: Tags and fused reporters may be left off the sequences shown.

The chains behind the UniProt entries cited, without tags or fusion partners. A line that says so, or that is headed by a name, gives the form on record, which may keep a tag or linker. Residues count along the entry.
UniProt P02724, residues 20-150: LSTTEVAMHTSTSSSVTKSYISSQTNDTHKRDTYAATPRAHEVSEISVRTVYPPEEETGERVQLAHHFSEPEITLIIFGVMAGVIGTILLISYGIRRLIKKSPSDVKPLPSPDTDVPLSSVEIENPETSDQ
UniProt Q14494: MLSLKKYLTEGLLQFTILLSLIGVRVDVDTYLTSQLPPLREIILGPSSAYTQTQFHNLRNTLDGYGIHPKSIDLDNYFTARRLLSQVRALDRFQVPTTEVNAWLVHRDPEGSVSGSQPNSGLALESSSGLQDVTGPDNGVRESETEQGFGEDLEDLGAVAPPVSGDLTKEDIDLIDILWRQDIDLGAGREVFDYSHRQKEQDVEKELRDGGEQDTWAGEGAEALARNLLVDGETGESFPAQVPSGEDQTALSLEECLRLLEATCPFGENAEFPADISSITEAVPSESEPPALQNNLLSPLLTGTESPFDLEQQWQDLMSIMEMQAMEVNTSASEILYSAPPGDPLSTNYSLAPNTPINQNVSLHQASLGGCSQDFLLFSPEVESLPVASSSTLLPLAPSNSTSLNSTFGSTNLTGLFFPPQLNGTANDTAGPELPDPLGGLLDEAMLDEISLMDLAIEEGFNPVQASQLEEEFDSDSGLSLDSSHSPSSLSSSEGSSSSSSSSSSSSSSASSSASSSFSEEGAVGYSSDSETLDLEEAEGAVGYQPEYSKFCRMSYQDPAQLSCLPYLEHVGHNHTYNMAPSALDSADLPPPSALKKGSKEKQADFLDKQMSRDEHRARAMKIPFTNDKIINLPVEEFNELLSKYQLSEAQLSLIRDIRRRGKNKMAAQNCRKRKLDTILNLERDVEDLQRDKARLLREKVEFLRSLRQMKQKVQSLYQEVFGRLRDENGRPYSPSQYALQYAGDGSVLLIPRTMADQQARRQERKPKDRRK
UniProt P62955: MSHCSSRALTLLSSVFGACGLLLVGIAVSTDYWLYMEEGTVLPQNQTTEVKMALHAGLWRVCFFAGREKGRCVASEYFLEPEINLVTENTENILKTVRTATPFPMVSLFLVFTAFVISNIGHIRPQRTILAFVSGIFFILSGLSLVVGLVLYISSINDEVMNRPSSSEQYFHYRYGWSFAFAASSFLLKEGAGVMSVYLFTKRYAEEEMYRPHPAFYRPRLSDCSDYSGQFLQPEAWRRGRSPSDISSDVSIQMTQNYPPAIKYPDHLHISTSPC
PB2-N (residues 1 to 247) fused to Luc1 or Luc2 (P03427, residues 1-247): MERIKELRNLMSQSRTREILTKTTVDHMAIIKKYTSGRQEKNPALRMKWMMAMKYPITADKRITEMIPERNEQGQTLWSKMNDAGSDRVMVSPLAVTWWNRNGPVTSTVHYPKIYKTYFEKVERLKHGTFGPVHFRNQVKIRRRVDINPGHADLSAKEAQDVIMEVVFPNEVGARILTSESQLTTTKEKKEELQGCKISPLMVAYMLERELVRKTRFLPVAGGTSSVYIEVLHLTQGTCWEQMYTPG
PB2(36–247) fused to Luc2 (P03427, residues 36-247): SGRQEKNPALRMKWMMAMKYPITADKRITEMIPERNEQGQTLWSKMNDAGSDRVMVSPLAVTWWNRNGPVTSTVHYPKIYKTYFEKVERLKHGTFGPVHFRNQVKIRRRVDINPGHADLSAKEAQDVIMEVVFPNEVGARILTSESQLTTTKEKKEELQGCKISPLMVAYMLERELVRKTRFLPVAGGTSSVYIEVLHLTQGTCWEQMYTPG

Assays:
Assay in all cases: split reporter
[1] = molecular target: T1, glutathione S-transferase theta-1, Luc1-tagged (UniProt P30711)
T1 sequence: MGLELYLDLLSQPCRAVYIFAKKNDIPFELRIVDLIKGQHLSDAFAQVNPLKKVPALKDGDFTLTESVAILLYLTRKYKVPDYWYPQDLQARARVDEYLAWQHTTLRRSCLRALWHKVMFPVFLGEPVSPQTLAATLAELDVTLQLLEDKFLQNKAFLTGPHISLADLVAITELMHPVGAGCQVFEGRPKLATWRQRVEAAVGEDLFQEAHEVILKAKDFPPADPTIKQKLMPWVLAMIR

[2] = molecular target: T2, dopamine beta-hydroxylase, Luc1-tagged (UniProt P09172)
T2 sequence: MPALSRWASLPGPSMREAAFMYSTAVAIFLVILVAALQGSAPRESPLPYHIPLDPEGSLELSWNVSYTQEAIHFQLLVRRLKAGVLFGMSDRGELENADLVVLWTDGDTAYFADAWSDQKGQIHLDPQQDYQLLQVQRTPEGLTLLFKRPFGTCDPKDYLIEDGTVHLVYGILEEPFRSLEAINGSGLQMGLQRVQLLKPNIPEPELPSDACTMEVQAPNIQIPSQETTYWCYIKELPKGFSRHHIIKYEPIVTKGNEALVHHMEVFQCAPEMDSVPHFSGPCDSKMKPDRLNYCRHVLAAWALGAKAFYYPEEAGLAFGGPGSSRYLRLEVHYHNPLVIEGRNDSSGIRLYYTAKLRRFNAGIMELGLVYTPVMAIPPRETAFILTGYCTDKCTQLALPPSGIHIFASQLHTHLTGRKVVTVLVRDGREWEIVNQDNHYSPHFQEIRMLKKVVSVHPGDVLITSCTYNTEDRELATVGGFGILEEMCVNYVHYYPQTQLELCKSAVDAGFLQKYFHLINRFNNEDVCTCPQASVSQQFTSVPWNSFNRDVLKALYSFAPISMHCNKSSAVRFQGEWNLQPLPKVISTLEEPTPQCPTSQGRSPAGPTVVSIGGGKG

[3] = molecular target: T3, Neurexophilin-1, Luc1-tagged (UniProt P58417)
T3 sequence: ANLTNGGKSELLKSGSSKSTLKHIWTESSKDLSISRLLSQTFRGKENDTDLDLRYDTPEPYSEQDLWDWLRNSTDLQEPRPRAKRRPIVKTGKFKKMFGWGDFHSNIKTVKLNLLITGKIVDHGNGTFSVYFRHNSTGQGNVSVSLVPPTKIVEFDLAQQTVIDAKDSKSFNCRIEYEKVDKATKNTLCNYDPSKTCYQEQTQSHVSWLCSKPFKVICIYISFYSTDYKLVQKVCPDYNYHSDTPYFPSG

[4] = molecular target: glycophorin-A, Luc1-tagged (UniProt P02724)
[5] = molecular target: T4, Contactin-2, Luc1-tagged (UniProt Q02246)
T4 sequence: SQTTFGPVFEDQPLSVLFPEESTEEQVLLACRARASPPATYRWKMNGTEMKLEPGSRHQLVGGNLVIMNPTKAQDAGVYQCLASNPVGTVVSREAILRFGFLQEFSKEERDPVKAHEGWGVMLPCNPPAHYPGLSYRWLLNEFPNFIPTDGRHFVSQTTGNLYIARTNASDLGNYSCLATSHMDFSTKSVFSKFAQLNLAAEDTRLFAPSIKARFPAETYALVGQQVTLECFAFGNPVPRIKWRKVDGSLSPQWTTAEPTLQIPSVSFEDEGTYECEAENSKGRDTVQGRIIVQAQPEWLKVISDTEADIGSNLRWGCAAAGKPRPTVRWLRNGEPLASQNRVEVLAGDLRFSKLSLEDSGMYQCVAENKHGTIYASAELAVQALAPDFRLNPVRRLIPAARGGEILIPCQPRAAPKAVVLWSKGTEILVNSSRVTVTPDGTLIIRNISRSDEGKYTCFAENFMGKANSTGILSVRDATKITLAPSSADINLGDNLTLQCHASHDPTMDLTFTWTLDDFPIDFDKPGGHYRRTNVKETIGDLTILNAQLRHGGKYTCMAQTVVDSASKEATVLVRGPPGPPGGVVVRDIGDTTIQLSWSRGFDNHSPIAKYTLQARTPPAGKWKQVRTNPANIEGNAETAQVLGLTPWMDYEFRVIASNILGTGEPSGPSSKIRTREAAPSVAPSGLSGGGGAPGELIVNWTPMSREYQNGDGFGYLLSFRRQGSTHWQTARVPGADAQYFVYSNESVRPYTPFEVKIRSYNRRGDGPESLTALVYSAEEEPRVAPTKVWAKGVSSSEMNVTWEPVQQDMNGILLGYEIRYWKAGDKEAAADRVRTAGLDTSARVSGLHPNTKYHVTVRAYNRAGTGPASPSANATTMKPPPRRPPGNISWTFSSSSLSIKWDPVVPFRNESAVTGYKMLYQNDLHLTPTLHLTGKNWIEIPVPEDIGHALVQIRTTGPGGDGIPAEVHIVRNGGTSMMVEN

[6] = molecular target: endoplasmic reticulum membrane sensor NFE2L1, Luc1-tagged (UniProt Q14494)
[7] = molecular target: Voltage-dependent calcium channel gamma-7 subunit, Luc1-tagged (UniProt P62955)
[8] = molecular target: T5, MICOS complex subunit MIC27, Luc1-tagged (UniProt Q6UXV4)
T5 sequence: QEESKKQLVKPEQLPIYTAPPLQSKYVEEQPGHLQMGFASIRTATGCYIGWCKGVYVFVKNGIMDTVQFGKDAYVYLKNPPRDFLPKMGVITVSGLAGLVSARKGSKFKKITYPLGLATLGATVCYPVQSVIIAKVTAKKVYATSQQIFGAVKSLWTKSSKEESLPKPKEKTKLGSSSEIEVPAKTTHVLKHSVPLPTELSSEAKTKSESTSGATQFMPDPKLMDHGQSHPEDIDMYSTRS

Measured: binding

PB2-N (residues 1 to 247) fused to Luc1 or Luc2 (from UniProt P03427 1-247) (domain or fragment)
no binding: [1] | [2] | [3] | [4] | [5] | [6] | [7] | [8]

PB2(36–247) fused to Luc2 (from UniProt P03427 36-247) (domain or fragment)
no binding: [1] | [2] | [3] | [4] | [5] | [6] | [7] | [8]
